Measured data: PubChem BioAssay AID686937 (Drosophila RNAi Screening Center, 2013)

Purpose: 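Knock-downs that reduce output of a secreted reporter enzyme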 (primary screen)
System: Drosophila S2 cells expressing secreted horseradish peroxidase
Reagents: long dsRNA against Drosophila genes
Time to read-out: about 5.5 days (5 days dsRNA, then 12 h reporter induction)
Conditions: reporter expression induced after 5 days of dsRNA, read 12 h later; inducer not stated
Detection: 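After 5 days of dsRNA and 12 h of reporter induction, medium peroxidase read by chemiluminescence and scored as per-plate z-score; higher values mean more reporter released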
Scale: z-score: higher = more reporter secreted into medium
The screen tested about 23,000 reagents; shown is an unselected part of those with a known target gene and a result. 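Reduced-secretion tags in replicate 1 do not always agree with the z-scores; no criterion for assigning the tags was given.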 Further read-outs or replicates are left out here. Not given: the amount of reagent.

The opening 2 records, ahead of the listing:
CG12730 [DRSC17885] | z-score, replicate 1: 0.42
CG4301 [DRSC19886] | z-score, replicate 1: 0.15

Results, from the first entry:
CG12730 [DRSC17885] | z-score, replicate 1: 0.42
CG4301 [DRSC19886] | z-score, replicate 1: 0.15
CG4854 [DRSC15663] | z-score, replicate 1: 0.29
CG11581 [DRSC19407] | z-score, replicate 1: 0.39
mRpL22 [DRSC19915] | z-score, replicate 1: -0.17
jhamt [DRSC01985] | z-score, replicate 1: -0.25
CG34288 [DRSC13564] | z-score, replicate 1: 0.29
RpS27A [DRSC03421] | z-score, replicate 1: -3.93; phenotype, replicate 1: reduced secretion
EbpIII [DRSC04638] | z-score, replicate 1: 0.68
Sarm [DRSC08906] | z-score, replicate 1: -0.4
Sarm [DRSC08907] | z-score, replicate 1: 0.3
Sarm [DRSC10038] | z-score, replicate 1: 0.31
Sarm [DRSC10039] | z-score, replicate 1: 0.35
Sarm [DRSC10927] | z-score, replicate 1: 0.15
Sarm [DRSC10929] | z-score, replicate 1: 0.32
Acsx1R [DRSC14339] | z-score, replicate 1: 0.34
